Some of the results follow.
target: OsWRKY34 (Oryza sativa, UniProt Q0JBA9 1-250); assay: protein-binding microarray (RPBM); PBS, 2% BSA, 51.3 ng/ul salmon testes DNA, 50 uM zinc acetate, 200 nM TF, 25 C, 1 h; high values mean tight binding; settings: protein: recombinant; tags: N-terminal polyhistidine and DsRed monomer fusion (pET32a); label: CyDye5-dUTP incorporated in the synthesized complementary strand; 3' TTTTT single-stranded linker to array surface; dsDNA, one strand shown
Method in brief: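 A custom Agilent array was converted to double-stranded form by primer extension with Cy5-dUTP and blocked with 2% BSA. Protein at 200 nM in PBS with 2% BSA, salmon testes DNA and 50 µM zinc acetate was applied for 1 h at 25 °C, followed by washing. The proteins were polyhistidine–DsRed N-terminal fusions of transcription factors, expressed in E. coli BL21-CodonPlus and Ni–NTA-purified. The binding signal is per-feature fluorescence intensity (arbitrary units) from an Axon 4000B scanner.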

Protein sequences, listed by entry. Tags and fused reporters are not part of them.
UniProt Q0JBA9, entry or part of it: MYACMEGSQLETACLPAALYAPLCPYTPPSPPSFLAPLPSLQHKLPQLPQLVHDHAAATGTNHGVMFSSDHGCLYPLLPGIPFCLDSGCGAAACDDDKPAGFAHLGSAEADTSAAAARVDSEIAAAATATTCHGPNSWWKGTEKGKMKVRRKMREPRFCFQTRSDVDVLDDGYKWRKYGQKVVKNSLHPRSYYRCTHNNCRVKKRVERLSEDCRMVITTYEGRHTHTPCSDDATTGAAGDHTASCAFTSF

| Sequence | binding signal |
| --- | --- |
| CGCTGCTTTTGCTGCTGCTGTTGATGATGCATCCCATTCCCGGAGTCACCTAGTGCAG | 9140 fluorescence intensity (a.u.) |
| ATTATCCTTTCCCCGTTTCCGACCAGGCTTTCCACAGAAACGGAGTCACCTAGTGCAG | 9430 fluorescence intensity (a.u.) |
| GCACCTCTTTCCTATCACGCGTCACCTTGCTCCATTGTCGCGGAGTCACCTAGTGCAG | 19000 fluorescence intensity (a.u.) |
| TCTGTTGTGCTCTTTCGTGTGATAGATCGATTTTTTGATTCGGAGTCACCTAGTGCAG | 10600 fluorescence intensity (a.u.) |
| TCTACACATTTTTTTTGACGCCTCTGTTCGTGGCATTCGTCGGAGTCACCTAGTGCAG | 12700 fluorescence intensity (a.u.) |
| TTCGTTTGACCAATGCTGTTACTGCCCTATATAAACCTTCCGGAGTCACCTAGTGCAG | 11900 fluorescence intensity (a.u.) |
| ATTGAGAGGGTTTGAAAGGGGTTGATGTGTGGTGAAGGGTCGGAGTCACCTAGTGCAG | 9210 fluorescence intensity (a.u.) |
| ACGCCACCCGCGTCCTATCCATTCCACGGTTCGTTTCCACCGGAGTCACCTAGTGCAG | 9290 fluorescence intensity (a.u.) |
| AGGGCTTTCGGTTTTTTGGTTTTCCTTTCGTCACCGTCTCCGGAGTCACCTAGTGCAG | 9140 fluorescence intensity (a.u.) |
| ATCCACCCTCTATTCATCTACTCGGTTAGATGATCATTCACGGAGTCACCTAGTGCAG | 8130 fluorescence intensity (a.u.) |
| TCTTCGGTTTACTTATGTCCTGGCTGGTTGGGAGGGGACACGGAGTCACCTAGTGCAG | 19100 fluorescence intensity (a.u.) |
| AGAGTTCACATCTACGATTTGGTTGCTTGCATTCTCGCCACGGAGTCACCTAGTGCAG | 8370 fluorescence intensity (a.u.) |
| CGTTGGAAAGCTACTGTTTTGACCCGTTCACACCACTACGCGGAGTCACCTAGTGCAG | 9680 fluorescence intensity (a.u.) |
| CCTATCTGTTACTTTGGTATTGCAGCTTGTTTGCTTCTAGCGGAGTCACCTAGTGCAG | 8380 fluorescence intensity (a.u.) |
| AACAAACCAACCTAGGATACTACTGTCAATTTTCACAACCCGGAGTCACCTAGTGCAG | 9280 fluorescence intensity (a.u.) |
| GATTTTGCTATACATCACTCGGGTGATTCTTTGCCTGATACGGAGTCACCTAGTGCAG | 8620 fluorescence intensity (a.u.) |
| TTTATTCTTTTTATATCATTTGATTCATTGTTAAATATACCGGAGTCACCTAGTGCAG | 8220 fluorescence intensity (a.u.) |
| GGGTCGGCCGGGGTGTCCGGTTGTCCAGCTGCCAGATTCACGGAGTCACCTAGTGCAG | 8460 fluorescence intensity (a.u.) |
| CGCCGAGCCGCCGCCTCTGCTTCCGGGCCAGCCAACCTTTCGGAGTCACCTAGTGCAG | 9140 fluorescence intensity (a.u.) |
| GGCGATAGGGAGAGGGAGGAGTGGGTGGAGGAAGCGGATACGGAGTCACCTAGTGCAG | 8840 fluorescence intensity (a.u.) |
| GGCCGAAGCAGTGGTTTTCAAGTTGCGCCAACACATCGTCCGGAGTCACCTAGTGCAG | 8950 fluorescence intensity (a.u.) |
| AATCGCGATCCCTTGTGCTCACATCCCAAGCTTCCCAAGCCGGAGTCACCTAGTGCAG | 8170 fluorescence intensity (a.u.) |
| TTGTGTGTTGTAGTGGTGAGTGGTGTTTTGATGGTTTCTGCGGAGTCACCTAGTGCAG | 8460 fluorescence intensity (a.u.) |
| CGACACCAATTTTGTTACAACTGGCACAGCCCACCTTAATCGGAGTCACCTAGTGCAG | 8350 fluorescence intensity (a.u.) |
| AATCTTTTATACATATAATCCCTCCGTTTCTAAATATTTACGGAGTCACCTAGTGCAG | 8110 fluorescence intensity (a.u.) |
| GGTCCTTCTGCCTCTGTTTATGTTTTCCTGTTATTTCTGTCGGAGTCACCTAGTGCAG | 11200 fluorescence intensity (a.u.) |
| TTCGTTTGACTTTTGCCGTTTCAAATTTGAATTCTCGAAACGGAGTCACCTAGTGCAG | 9080 fluorescence intensity (a.u.) |

| Sequence | binding signal |
| --- | --- |
| GTTTCATAATCCTGTGTTCTTTTTGTTTACTATGGTTTTGCGGAGTCACCTAGTGCAG | 11000 fluorescence intensity (a.u.) |
| GGATATCCGGTTTTGTGGTTGGGTGACGATTTTGTAATTCCGGAGTCACCTAGTGCAG | 9010 fluorescence intensity (a.u.) |
| TCTCTCTCTCTCTCGCCATCGTCACTGCGGCTGCTGCTGCCGGAGTCACCTAGTGCAG | 8310 fluorescence intensity (a.u.) |
| ATCTTGTCATTTTACCATCCGTGTCTGTCGGACTCATGTCCGGAGTCACCTAGTGCAG | 9280 fluorescence intensity (a.u.) |
| GCCAGACAAGAACGGGAATAAGCAAATTGTTTGGTGGAACCGGAGTCACCTAGTGCAG | 8940 fluorescence intensity (a.u.) |
| ACTCCACAACTCCACAAGCTTCCTGTCCAGTCTCCACTCGCGGAGTCACCTAGTGCAG | 8820 fluorescence intensity (a.u.) |
| AACCCTAGCTCTTCACAGCTTCCATGGCTCTTCTCTCTCTCGGAGTCACCTAGTGCAG | 12500 fluorescence intensity (a.u.) |
| CACTCCCATTCCCATCCTCCACATCCCGCGCCATCGACCTCGGAGTCACCTAGTGCAG | 8520 fluorescence intensity (a.u.) |
| TCTTTTGTGCATTTGTACTAATATGTTATGTTTGAGTATACGGAGTCACCTAGTGCAG | 8160 fluorescence intensity (a.u.) |
| TTGAGAAGCCTCTGGAACACCTGCGATCCGTCCATCGTCTCGGAGTCACCTAGTGCAG | 8340 fluorescence intensity (a.u.) |
| GCCGTCACATTTATGCCACATCATTTTTTTTTCTTTTTTTCGGAGTCACCTAGTGCAG | 11100 fluorescence intensity (a.u.) |
| ATATGCTATACTTTATCAATGTTCTTGCCTTTATTTTCCACGGAGTCACCTAGTGCAG | 9590 fluorescence intensity (a.u.) |
| GTCTGTACCGGTTCTTCAAATCAACCAGCACGATGTATTACGGAGTCACCTAGTGCAG | 8650 fluorescence intensity (a.u.) |
| CTTCTTGGGCTTGGTGTACGTCTTCTTCTTGCGCTTCTTGCGGAGTCACCTAGTGCAG | 9830 fluorescence intensity (a.u.) |
| CCTCCGAATTGATATTTTGTTTTGAGAGATCTTGTTTACTCGGAGTCACCTAGTGCAG | 8310 fluorescence intensity (a.u.) |
| CTCACATACGCTTGTTAACCCTTTCTTTCACGTGATGACTCGGAGTCACCTAGTGCAG | 8200 fluorescence intensity (a.u.) |
| CTGTTCTTGTACGTGTCATCGCCGCCGACCCAACCTGACCCGGAGTCACCTAGTGCAG | 8150 fluorescence intensity (a.u.) |
| GACAGAGCTTGTTGACTATCAAGCGCTCCGTTCTGACTTCCGGAGTCACCTAGTGCAG | 8920 fluorescence intensity (a.u.) |
| CCCCACCCACCCCAACACAACACACGCGGTCACCTTCCCCCGGAGTCACCTAGTGCAG | 8070 fluorescence intensity (a.u.) |
| CCTGGGGCGCGTTTCCACTGCTTAAACCTTAAGCAAACCCCGGAGTCACCTAGTGCAG | 8430 fluorescence intensity (a.u.) |
| CCGCCATCGCTCACCGGTCCCGCCGCCACTCGCCGCTCGTCGGAGTCACCTAGTGCAG | 10800 fluorescence intensity (a.u.) |
| ACTCGGTCACTCTCACTCTTCATTTCGTCGAACACCTTTGCGGAGTCACCTAGTGCAG | 10200 fluorescence intensity (a.u.) |
| AGTGTAATATCCGGTCTTTTTATTTTTATTTAAAACCATACGGAGTCACCTAGTGCAG | 9360 fluorescence intensity (a.u.) |
| TATTTTATGCGTGACTTATCTTTTTAATTTTTTTCATAATCGGAGTCACCTAGTGCAG | 11100 fluorescence intensity (a.u.) |
| CCCATCACGATCTTTTGCATGCGTATTGACTGTTGAGCCCCGGAGTCACCTAGTGCAG | 10600 fluorescence intensity (a.u.) |
| GCGAGGTCTTTCCCATTCGCTGCCTCCTCCGCCGCACTCACGGAGTCACCTAGTGCAG | 8860 fluorescence intensity (a.u.) |
| TCTGTTTTTTTTCTCTCTTCCGTACCTTTTTCGGTTTTCTCGGAGTCACCTAGTGCAG | 10300 fluorescence intensity (a.u.) |

An excerpt of these results, as labelled records.
GCCGTCACATTTATGCCACATCATTTTTTTTTCTTTTTTTCGGAGTCACCTAGTGCAG
  binding signal: 11100 fluorescence intensity (a.u.)
ATATGCTATACTTTATCAATGTTCTTGCCTTTATTTTCCACGGAGTCACCTAGTGCAG
  binding signal: 9590 fluorescence intensity (a.u.)
